Results on one molecule are retold here after patent US20260207707A1 (UNIVERSITY OF CHICAGO, published 2026).

These are yes or no findings as the source states them, for the method shown. Binding seen in cells or lysates may run through a third protein. Some binding calls cover weakened binding; strength is not graded here.

The target of this assay is T1, neutrophil elastase (ELANE) (human, UniProt P08246 30-247, limits assumed).
T1 construct: Purified ELANE; In the co-immunoprecipitation it is the native protein in human PMN media; also called human ELANE
T1 sequence (looked up): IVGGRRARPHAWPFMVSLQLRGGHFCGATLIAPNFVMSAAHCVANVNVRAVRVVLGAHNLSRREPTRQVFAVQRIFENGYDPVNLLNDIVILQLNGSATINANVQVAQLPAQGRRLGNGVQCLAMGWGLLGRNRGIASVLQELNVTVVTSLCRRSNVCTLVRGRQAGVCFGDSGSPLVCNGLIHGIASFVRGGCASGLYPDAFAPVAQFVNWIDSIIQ
The assay is described as follows: co-immunoprecipitation from human PMN media.

B1: eosinophil cationic protein (ECP) (other, human, UniProt P12724 28-160, looked up)
chain: RPPQFTRAQWFAIQHISLNPPRCTIAMRAINNYRWRCKNQNTFLRTTFANVVNVCGNQSIRCPHNRTLNNCHRSRFRVPLLHCDLINPGAQNISNCTYADRPGRRFYVVACDNRDPRDSPRYPVVPVHLDTTI
notes: Identified by proteomics in media conditioned by human PMNs
B1: the binding entry is “binds”.
